# Test results from paper PMC6879747.
# Protein sequences, listed by entry. Tags and fused reporters are not part of them.
# UniProt Q9DCD6: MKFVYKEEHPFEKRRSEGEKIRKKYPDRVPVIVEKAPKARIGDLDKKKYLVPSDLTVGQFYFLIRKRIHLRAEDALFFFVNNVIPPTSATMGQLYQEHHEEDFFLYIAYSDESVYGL
# Results are given in words; binding and its absence hold for the method and conditions named. In cells and extracts the contact can be indirect. Some results given as binding are weak or reduced against the parent protein; the word gives no strength.
# Target: T1, Protrudin (mouse (endogenous in hippocampus of C57/BL6 mice)) (UniProt Q3TXX3)
# T1 sequence: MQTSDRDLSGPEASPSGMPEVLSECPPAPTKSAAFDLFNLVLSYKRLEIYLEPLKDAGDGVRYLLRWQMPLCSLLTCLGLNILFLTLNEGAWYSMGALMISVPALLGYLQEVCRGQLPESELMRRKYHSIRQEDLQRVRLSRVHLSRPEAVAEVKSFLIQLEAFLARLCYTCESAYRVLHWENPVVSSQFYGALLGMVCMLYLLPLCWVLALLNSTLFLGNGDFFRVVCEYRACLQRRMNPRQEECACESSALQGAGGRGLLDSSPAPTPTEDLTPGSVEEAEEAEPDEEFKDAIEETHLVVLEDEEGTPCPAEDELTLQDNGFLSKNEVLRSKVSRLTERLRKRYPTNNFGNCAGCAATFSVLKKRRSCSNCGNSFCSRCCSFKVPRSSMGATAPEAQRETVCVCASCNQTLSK
# Experiment: co-IP; extracts of hippocampal tissue from PTZ-induced epileptic mice; anti-protrudin, anti-GABAARβ2/3, anti-GABARAP or control IgG at 4°C for 12 h, then protein A/G agarose beads at 4°C overnight; immunoblot; quantitative co-IP also done in mice injected with LV-GFP or LV-protrudin
substance,measurement,value
GABA receptor-associated protein (from UniProt Q9DCD6 1-117),binding,binds
